Over roughly 33,000 sequences, “E-score (-0.5 to 0.5)” has its median near -0.0014; the highest 2% begin near 0.25. Some of the results follow.
target: T1, Cad1 (UniProt P24813); assay: PBM E-score (8-mer binding enrichment) (E-score (-0.5 to 0.5)); higher = stronger / more preferred TF binding; conditions: protein concentration: 100 nM; construct: GST-full length
T1 sequence: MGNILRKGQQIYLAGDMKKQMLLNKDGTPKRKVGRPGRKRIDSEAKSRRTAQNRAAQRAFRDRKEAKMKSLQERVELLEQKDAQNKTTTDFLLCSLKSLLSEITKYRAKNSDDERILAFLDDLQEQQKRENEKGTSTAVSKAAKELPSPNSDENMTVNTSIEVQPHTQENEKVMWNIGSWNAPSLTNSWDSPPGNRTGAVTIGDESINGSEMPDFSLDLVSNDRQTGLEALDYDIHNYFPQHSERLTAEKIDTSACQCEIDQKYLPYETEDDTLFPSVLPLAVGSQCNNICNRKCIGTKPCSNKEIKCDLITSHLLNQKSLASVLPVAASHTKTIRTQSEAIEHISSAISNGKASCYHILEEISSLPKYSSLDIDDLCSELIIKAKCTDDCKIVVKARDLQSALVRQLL
Outline: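 Each ungapped eight-base word and its reverse complement, pooled, received an E-score from the Universal PBM Analysis Suite. Underlying scans, normalised with masliner, recorded fluorescent anti-GST bound to GST-tagged yeast transcription factors. These were applied at about 100-200 nM to universal all-10-mer Agilent arrays double-stranded by primer extension.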

Row | Sequence | PBM E-score
1 | CTATACTA | 0.0535
2 | AGACCAAA | 0.0474
3 | CAAACATA | -0.173
4 | ATGTTCGG | 0.0439
5 | ACGTGATC | 0.14
6 | GACCCCCA | -0.424
7 | CCTCAACG | -0.122
8 | ATCATTCC | -0.0418
9 | CTACAAAC | -0.0457
10 | ACCTAACT | 0.171
11 | AGGTGAAC | 0.0258
12 | GATGTGGA | 0.0129
13 | GAATCCGA | 0.134
14 | CTTCGTAC | -0.201
15 | GGCTATAC | 0.137
16 | AACTTTTG | -0.0868
17 | AATCTCGC | 0.129
18 | CAGCATTA | 0.0931
19 | AAGCACAA | -0.00896
20 | CTAGCCAG | -0.161
21 | ACGGCATA | 0.16
22 | ACCTTTTG | -0.244
23 | CTCCAGTC | -0.135
24 | AGTGAGGG | -0.21
25 | CGGAAACG | -0.0175

Row | Sequence | PBM E-score
26 | TCGAGCCA | -0.0683
27 | ATCCACTC | 0.131
28 | ATTAGCGC | 0.142
29 | ACCCGCCT | -0.189
30 | AACAGTTG | -0.134
31 | AAACGTAG | -0.0438
32 | AAGGACTC | -0.212
33 | GGACTAGA | -0.0933
34 | ACGCGAAT | 0.0579
35 | TAAACGAA | 0.145
36 | ACATGTAT | 0.204
37 | CGCCCTCA | -0.168
38 | CGCAAGCA | 0.0451
39 | AGATGACC | -0.0755
40 | ATGAAGGC | 0.0119
41 | CTTAACCA | 0.00801
42 | ACCGCAGG | -0.0366
43 | CATGTGAC | -0.0736
44 | AACATAGA | -0.0589
45 | AACTTCTT | -0.00507
46 | TGACATAA | 0.266
47 | AAGGTAAA | 0.0977
48 | CGCGTCGC | 0.13
49 | ACCATTAT | -0.0874
50 | AACAATCT | 0.0393

Some of the entries above, reformatted:
Row	Sequence	PBM E-score
7	CCTCAACG	-0.122
31	AAACGTAG	-0.0438

Next part:

Row | Sequence | PBM E-score
51 | AGAAGTGG | -0.177
52 | TATTAACA | 0.25
53 | CACGATGG | -0.0616
54 | AATGCGAG | 0.0951
55 | AGTCGGTG | -0.0753
56 | GCACCTAA | 0.0774
57 | CACACCCC | -0.302
58 | ACATACGT | -0.213
59 | CTATTTCC | 0.184
60 | CAGACTGA | 0.0467
61 | CGCCTGAA | 0.0643
62 | GAATTTAC | 0.184
63 | ACAATGAC | -0.14
64 | ATAGGTCA | 0.0484
65 | AGGGGGTG | -0.374
66 | ACGGGAAA | 0.00569
67 | GACAAGGC | -0.0346
68 | ACAGGCTG | -0.194
69 | GCTCGAGC | 0.189
70 | AATAACTG | 0.108
71 | CCATATCC | -0.0374
72 | AGGGCGAT | -0.132
73 | CGTGCGAA | 0.036
74 | GCCTTCGC | -0.124
75 | ACCCAAAA | -0.0031

Row | Sequence | PBM E-score
76 | CAAGGCAA | -0.0882
77 | GGTACGTA | -0.0233
78 | AGCAGACT | 0.194
79 | TATATACA | 0.209
80 | ACCCGGCG | -0.12
81 | GCCCTACC | 0.043
82 | CCGCCGTC | 0.117
83 | ATGGAGCA | -0.0452
84 | GTTCAAGA | 0.0594
85 | GCCTACCC | -0.112
86 | ATCGGAAA | 0.141
87 | GCGGCATA | 0.188
88 | AACTCCTC | -0.267
89 | CAGGCGAG | -0.123
90 | AGGACATC | 0.179
91 | TACTTACA | -0.0122
92 | TAATGAAA | 0.238
93 | ATGGTGGG | -0.171
94 | CGCGCAGA | 0.287
95 | ACTGAGCG | -0.124
96 | GGCGTGAA | -0.0289
97 | CAGCGGCA | -0.0412
98 | GCGTATCA | 0.0932
99 | AAGTCCAC | -0.195
100 | AATCGGAC | 0.0467

Row | Sequence | PBM E-score
101 | CCACTGTA | -0.0112
102 | GAATTGAA | 0.0547
103 | CTAGCCTC | -0.195
104 | ACCAGTGA | -0.00797
105 | CGACTTGA | -0.0967
106 | GGCTACAA | -0.0701
107 | ACGAATGA | 0.104
108 | TGACAGCA | 0.0838
109 | ACGACGTG | 0.0005
110 | CACACTAG | 0.043
111 | CTGTGCTC | 0.167
112 | GAACTCAA | -0.06
113 | GCACTAAC | 0.0507
114 | GAAAGGGA | -0.278
115 | AGCGGCTG | -0.0714
116 | CACAGTCC | 0.0338
117 | AATTTTGT | 0.143
118 | AGCACGAC | -0.162
119 | AATTCAGC | -0.0551
120 | ATCCTGGC | 0.0259
121 | TAAATACA | 0.0881
122 | TCGTGAAA | 0.0207
123 | GTGACAAA | 0.229
124 | GGACCCGA | -0.166
125 | AACCTTAG | -0.22

Row | Sequence | PBM E-score
126 | AACTCTCG | -0.0932
127 | GGACTTTA | 0.0423
128 | TGTGCTAA | 0.0827
129 | AAATAATA | 0.248
130 | AACGTGCT | -0.171
131 | GCACCCGA | -0.0648
132 | AGACTTAT | -0.082
133 | CCCCGCCA | 0.104
134 | AGTATGCG | -0.0369
135 | CAGTTATG | 0.172
136 | AGGCGTCG | -0.0234
137 | AGCAGGGG | -0.258
138 | ATGGTGCC | -0.101
139 | ACCAACGG | -0.0928
140 | AGCGGTTG | 0.0307
141 | CGGCAGAC | -0.0811
142 | ATTCGGTC | 0.0825
143 | GAGACAGA | -0.0548
144 | GGTGGGCA | -0.0317
145 | CCACTACG | 0.0167
146 | AAACGTCA | -0.123
147 | ACGGACGC | -0.0868
148 | ACCGCGCA | -0.0142
149 | GAACGAGA | 0.162
150 | GTTGGCCA | -0.256

Exported as a markdown table: entries from further up

| Row | Sequence | PBM E-score |
| --- | --- | --- |
| 132 | AGACTTAT | -0.082 |
| 133 | CCCCGCCA | 0.104 |
| 134 | AGTATGCG | -0.0369 |
| 135 | CAGTTATG | 0.172 |
| 136 | AGGCGTCG | -0.0234 |

Next part

Row | Sequence | PBM E-score
151 | CAACGCGA | 0.157
152 | AGTATCAA | 0.113
153 | CCGCTTCG | -0.194
154 | AACAAGCA | -0.0911
155 | CGGTTGGA | -0.167
156 | CCGGCGCG | -0.0246
157 | TATGTAAA | 0.148
158 | ATCATCAG | -0.0783
159 | ATTGAAAT | 0.248
160 | AGATGGTG | -0.181
161 | TTTACAAA | 0.177
162 | ATTGCAGG | 0.128
163 | GGAGAATA | 0.0961
164 | ACCTCATG | -0.226
165 | GCCGCAGC | -0.0694
166 | GTAATTAC | 0.33
167 | GTGTCCAA | 0.0583
168 | ACCGTAGC | -0.199
169 | CAGAAGCG | -0.155
170 | CGTGCGGC | -0.146
171 | GTTTTAAA | 0.139
172 | GCGGGTGA | -0.0382

Reference: the supplement of paper PMC3334620
